Laboratory results reported in patent publication US4284653A, “Process for handling and processing fish meat” (Nippon Suisan Kabushiki Kaisha, priority 1979, dated 1981).
Starred links: 1 amine or outer side, 2 acyl side, 3 side chain; linkers in the order of their positions; H or OH if unused. Residues, ends and D or L forms follow the SMILES beside them. CO = O=C([*:1])[*:2]

Tests used:
[1] = system: fillets of Pacific hake containing spots of jellied condition; experiment: Appearance and organoleptic test of fillets broiled with salt (Example 2); details: number of 50 fillets, dipped 30 minutes in 10% sodium chloride with 0.001% antipain
[2] = system: yellowfin sole containing spots of jellied condition; experiment: Appearance and mouth feel of dried flatfish with salt (Example 7); design: species or system North Pacific yellowfin sole
[3] = of 50 fish, same dip, control 2

Molecule | Appearance of a perfect fillet state, and texture of normal ([1]; control 0) | Muscles are softened, and partially depressed ([1]; control 7) | Appearance of a perfect fillet state, but slightly softened texture ([1]; control 12) | Muscles are wholly softened, and crumbled ([1]; control 31) | taste and flavour of broiled dried flatfish ([2]; Example 7 sample, broiled and eaten) | Appearance: Number of flatfish having perfect fish shape ([2]; of 50 fish, dipped 2 hours in 10% sodium chloride with 0.01% chymostatin, supersonic waves 18 KC 10 minutes, control 26) | Appearance: Number of flatfish consisting only of bones and skins [2, 3] | Mouth feel: Number of flatfish in the form of jelly or "nikogori" [2, 3] | Mouth feel: Number of flatfish having flesh like mashed potato ([2]; of 50 fish, same dip, control 17) | Appearance: Number of flatfish whose muscle was softened and partially depressed ([2]; of 50 fish, same dip, control 22)
CC(C)[C@H](NC(=O)[C@H](CCCNC(=N)N)NC(=O)N[C@@H](Cc1ccccc1)C(=O)O)C(=O)N[C@H](C=O)CCCNC(=N)N [antipain] ({Phe-CO}-Arg-Val-Arg-aldehyde) | 39 | 2 | 8 | 1 | – | – | – | – | – | –
chymostatin | – | – | – | – | the same taste and flavour as a conventional dried fish | 48 | 0 | 1 | 0 | 2
